This is one part of the list.
Columns and labels:
Assay in all cases: log2 fold change, soluble protein after heating vs DMSO (PISA); higher = thermal stabilisation; K562 lysate, 10 uM; active = over 0.2 and 3.5 SD of the protein, either way, in both replicates (recomputed)
vemurafenib = compound: CCCS(=O)(=O)Nc1ccc(F)c(C(=O)c2c[nH]c3ncc(-c4ccc(Cl)cc4)cc23)c1F [vemurafenib]
Procedure, shortened: (§1)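 Dounce homogenisation of K562 pellets in PBS pH 7.4 with 1 mM MgCl2 produced a crude extract, used at 1 mg/mL protein. Exposure to 10 μM compound lasted 30 min, and aliquots were then heated for 3 min across 48°C-58°C, pooled and brought to 0.5% NP-40 at 4°C. The supernatant after 21,000xg for 90 min was quantified by TMTpro 16plex LC-MS/MS with channel sums equalised. Duplicate values are given as log-two fold change in thermal stability relative to solvent controls.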

The chains behind the UniProt entries cited, without tags or fusion partners. Where a name states a change or a piece, a line headed by the entry shows the natural chain unless it says otherwise.
UniProt Q9UK97: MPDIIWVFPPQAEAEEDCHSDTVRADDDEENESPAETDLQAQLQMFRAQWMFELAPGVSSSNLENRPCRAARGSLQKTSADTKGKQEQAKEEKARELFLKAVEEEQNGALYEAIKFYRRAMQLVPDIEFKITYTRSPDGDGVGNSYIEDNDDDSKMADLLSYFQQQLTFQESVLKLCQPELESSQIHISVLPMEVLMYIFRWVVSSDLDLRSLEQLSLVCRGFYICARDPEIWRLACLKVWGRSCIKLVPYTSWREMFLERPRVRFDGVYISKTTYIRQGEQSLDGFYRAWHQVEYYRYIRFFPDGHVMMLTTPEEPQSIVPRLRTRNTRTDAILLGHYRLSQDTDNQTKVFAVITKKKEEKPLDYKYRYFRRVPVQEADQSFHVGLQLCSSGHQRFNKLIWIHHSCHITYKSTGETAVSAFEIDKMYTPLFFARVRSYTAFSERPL
UniProt Q0JRZ9: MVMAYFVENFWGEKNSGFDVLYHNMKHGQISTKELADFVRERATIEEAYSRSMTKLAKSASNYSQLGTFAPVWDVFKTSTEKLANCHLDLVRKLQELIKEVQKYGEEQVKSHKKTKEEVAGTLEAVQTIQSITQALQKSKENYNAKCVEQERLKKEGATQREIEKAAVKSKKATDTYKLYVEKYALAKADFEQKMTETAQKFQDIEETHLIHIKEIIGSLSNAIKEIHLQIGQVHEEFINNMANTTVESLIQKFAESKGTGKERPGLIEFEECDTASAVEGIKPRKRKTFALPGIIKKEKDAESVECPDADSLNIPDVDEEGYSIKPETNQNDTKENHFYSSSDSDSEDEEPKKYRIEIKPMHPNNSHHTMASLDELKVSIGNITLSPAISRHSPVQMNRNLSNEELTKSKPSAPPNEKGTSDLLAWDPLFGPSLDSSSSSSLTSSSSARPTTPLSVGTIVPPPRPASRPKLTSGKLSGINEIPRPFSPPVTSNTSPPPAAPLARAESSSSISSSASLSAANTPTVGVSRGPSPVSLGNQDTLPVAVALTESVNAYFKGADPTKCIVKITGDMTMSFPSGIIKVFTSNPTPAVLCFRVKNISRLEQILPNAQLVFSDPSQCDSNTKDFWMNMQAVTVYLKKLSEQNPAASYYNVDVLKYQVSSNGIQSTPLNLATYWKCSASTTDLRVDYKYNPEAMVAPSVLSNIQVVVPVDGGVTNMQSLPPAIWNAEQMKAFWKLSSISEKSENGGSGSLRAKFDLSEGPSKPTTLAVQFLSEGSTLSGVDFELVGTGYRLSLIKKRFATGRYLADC
UniProt A6NHQ2: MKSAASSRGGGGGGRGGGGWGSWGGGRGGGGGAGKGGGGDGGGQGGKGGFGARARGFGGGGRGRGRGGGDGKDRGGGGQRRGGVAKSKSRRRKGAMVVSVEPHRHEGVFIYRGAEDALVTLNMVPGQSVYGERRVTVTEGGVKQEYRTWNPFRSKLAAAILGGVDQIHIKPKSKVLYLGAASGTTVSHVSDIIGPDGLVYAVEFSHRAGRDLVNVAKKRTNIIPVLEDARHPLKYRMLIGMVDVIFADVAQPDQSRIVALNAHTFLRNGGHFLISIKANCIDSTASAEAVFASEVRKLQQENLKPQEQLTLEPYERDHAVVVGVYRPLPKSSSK
UniProt Q17RN3: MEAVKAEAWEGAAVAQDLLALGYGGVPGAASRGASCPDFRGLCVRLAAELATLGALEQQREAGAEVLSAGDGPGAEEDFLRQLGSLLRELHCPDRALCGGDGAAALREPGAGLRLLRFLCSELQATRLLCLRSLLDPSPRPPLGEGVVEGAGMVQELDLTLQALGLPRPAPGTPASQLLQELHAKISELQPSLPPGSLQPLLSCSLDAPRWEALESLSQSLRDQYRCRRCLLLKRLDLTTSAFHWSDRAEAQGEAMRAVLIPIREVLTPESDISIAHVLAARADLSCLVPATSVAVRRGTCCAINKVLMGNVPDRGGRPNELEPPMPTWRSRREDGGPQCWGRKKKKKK
UniProt Q6P4F2: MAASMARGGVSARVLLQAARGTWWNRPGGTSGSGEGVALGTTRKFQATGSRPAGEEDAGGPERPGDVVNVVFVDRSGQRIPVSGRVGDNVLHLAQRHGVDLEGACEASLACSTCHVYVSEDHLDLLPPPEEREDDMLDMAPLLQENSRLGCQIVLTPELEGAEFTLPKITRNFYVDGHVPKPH
UniProt P21333, whole entry, looked up: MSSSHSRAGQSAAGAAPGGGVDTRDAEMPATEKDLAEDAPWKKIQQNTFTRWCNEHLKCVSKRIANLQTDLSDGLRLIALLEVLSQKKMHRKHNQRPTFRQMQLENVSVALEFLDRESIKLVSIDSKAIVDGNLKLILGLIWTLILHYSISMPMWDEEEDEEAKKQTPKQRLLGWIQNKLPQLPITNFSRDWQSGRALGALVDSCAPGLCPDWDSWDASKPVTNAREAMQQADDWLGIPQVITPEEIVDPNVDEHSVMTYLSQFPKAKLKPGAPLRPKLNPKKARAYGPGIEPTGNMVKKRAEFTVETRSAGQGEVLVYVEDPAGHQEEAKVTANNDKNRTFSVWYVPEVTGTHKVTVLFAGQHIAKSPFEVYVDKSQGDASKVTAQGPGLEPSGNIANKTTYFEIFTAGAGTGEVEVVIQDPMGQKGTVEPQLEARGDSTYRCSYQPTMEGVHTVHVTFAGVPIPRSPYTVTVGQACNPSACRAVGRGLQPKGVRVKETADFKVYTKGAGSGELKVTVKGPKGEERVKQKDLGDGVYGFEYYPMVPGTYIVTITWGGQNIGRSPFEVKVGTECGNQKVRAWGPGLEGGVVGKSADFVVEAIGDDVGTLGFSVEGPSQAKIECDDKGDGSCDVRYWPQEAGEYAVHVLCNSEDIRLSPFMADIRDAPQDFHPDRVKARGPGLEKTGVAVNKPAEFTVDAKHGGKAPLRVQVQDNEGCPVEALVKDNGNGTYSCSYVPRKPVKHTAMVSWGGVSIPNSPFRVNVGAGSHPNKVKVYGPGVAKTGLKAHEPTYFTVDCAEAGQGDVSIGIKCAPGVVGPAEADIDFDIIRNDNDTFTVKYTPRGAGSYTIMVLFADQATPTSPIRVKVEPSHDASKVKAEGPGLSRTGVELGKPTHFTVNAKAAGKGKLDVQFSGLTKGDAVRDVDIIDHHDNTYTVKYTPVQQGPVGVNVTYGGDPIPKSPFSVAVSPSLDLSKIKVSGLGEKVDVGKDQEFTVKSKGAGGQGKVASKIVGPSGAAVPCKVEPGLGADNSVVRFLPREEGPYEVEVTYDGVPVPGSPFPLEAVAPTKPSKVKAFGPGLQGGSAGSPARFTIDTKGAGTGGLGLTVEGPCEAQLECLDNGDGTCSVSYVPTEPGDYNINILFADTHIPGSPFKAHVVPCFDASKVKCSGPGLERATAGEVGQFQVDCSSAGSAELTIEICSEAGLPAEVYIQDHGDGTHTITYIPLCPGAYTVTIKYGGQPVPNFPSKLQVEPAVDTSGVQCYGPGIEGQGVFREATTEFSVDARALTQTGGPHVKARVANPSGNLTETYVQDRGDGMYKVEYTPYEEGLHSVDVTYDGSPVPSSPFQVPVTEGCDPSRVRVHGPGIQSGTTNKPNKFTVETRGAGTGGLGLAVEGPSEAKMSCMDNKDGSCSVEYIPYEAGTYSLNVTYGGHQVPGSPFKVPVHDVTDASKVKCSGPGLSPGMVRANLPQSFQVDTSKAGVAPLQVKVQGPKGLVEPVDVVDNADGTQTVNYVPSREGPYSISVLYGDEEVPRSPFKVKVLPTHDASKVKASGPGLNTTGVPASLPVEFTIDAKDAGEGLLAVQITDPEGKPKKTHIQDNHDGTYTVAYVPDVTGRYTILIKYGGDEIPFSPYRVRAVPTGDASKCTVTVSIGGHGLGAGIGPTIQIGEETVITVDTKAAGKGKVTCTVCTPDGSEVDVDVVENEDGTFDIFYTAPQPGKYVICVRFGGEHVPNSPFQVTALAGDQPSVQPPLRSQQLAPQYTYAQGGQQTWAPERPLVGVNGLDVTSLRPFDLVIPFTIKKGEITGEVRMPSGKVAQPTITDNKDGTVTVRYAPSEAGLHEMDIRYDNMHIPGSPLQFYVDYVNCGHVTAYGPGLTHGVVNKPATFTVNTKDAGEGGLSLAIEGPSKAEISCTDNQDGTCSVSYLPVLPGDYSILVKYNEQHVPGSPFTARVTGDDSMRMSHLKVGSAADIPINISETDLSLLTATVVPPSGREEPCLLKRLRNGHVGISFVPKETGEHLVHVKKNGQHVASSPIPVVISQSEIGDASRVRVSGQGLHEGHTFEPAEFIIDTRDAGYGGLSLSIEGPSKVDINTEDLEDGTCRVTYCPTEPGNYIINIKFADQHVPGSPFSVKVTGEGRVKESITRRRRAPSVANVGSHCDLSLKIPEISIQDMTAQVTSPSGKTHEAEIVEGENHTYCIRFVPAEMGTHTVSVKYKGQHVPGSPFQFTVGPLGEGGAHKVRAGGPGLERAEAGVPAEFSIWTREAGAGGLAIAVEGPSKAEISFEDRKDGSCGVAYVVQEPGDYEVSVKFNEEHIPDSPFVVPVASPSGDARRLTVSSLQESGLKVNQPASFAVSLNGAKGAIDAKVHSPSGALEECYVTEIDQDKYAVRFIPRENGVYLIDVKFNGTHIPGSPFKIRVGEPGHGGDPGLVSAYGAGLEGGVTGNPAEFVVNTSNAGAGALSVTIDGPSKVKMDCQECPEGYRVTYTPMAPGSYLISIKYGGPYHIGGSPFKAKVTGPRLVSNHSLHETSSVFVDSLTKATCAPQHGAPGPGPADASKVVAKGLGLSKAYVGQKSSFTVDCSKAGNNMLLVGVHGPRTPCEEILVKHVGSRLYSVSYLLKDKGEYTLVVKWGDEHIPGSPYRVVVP
UniProt P39748, whole entry, looked up: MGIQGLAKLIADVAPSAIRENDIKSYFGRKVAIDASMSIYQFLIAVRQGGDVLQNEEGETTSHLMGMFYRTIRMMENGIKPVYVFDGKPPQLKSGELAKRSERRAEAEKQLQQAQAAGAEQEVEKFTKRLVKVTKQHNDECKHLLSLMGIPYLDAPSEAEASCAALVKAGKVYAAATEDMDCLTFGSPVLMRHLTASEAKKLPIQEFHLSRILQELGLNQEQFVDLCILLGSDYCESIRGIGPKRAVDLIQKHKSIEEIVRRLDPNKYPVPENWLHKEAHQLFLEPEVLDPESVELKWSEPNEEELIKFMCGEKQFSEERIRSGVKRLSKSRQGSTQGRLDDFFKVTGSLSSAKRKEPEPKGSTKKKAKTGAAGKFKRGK
UniProt P22087: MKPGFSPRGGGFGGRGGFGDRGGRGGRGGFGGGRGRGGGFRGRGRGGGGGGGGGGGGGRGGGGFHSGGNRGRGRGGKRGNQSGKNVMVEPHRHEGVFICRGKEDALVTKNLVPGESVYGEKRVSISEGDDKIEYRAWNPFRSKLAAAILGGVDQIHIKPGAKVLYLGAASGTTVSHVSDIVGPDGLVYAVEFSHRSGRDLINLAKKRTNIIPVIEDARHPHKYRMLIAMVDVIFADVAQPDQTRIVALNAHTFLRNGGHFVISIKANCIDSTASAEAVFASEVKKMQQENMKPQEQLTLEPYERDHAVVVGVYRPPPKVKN
UniProt Q86WN1: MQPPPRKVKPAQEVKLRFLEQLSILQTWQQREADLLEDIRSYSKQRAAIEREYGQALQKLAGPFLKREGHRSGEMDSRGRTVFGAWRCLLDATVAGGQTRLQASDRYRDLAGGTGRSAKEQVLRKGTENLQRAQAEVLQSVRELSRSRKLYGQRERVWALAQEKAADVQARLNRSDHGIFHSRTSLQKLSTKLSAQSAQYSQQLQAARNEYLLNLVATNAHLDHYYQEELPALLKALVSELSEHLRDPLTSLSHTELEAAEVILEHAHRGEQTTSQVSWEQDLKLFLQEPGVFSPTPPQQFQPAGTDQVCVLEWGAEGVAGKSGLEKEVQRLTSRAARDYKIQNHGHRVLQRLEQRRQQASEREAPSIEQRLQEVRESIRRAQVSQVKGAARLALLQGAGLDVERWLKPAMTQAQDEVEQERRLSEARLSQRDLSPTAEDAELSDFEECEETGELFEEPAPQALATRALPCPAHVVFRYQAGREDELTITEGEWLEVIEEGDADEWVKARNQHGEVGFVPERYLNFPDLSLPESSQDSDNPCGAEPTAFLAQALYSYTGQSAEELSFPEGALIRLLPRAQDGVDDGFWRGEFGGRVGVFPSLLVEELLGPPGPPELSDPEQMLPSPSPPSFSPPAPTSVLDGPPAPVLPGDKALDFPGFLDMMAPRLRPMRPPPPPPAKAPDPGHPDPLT

[1] = compound: CCCS(=O)(=O)Nc1ccc(F)c(C(=O)c2c[nH]c3ncc(Cl)cc23)c1F
Procedure, shortened: as §1

barasertib = compound: CCN(CCCOc1ccc2c(Nc3cc(CC(=O)Nc4cccc(F)c4)[nH]n3)ncnc2c1)CCOP(=O)(O)O [barasertib]
Procedure, shortened: as §1

[2] = compound: CC[C@@H]1C(=O)N(C)c2cnc(Nc3ccc(C(=O)NC4CCN(C)CC4)cc3OC)nc2N1C1CCCC1
Procedure, shortened: as §1

volasertib = compound: CC[C@@H]1C(=O)N(C)c2cnc(Nc3ccc(C(=O)N[C@H]4CC[C@H](N5CCN(CC6CC6)CC5)CC4)cc3OC)nc2N1C(C)C [volasertib]
Procedure, shortened: as §1

[3] = compound: CCn1c(C(=O)N(C2CC2)C2CC2)cc2c3c(ncn3C)c(Nc3cc(C)n(C)n3)nc21
Procedure, shortened: as §1

[4] = compound: CCn1cc(-c2ccnc3[nH]c(-c4cccc(CN(C)C)c4)cc23)c(-c2ccc(NC(=O)N(C)C)cc2)n1
Procedure, shortened: as §1

[5] = compound: CN1CCC(CNc2ccc3ncc(-c4cccc(OC(F)(F)F)c4)n3n2)CC1
Procedure, shortened: as §1

saracatinib = compound: CN1CCN(CCOc2cc(OC3CCOCC3)c3c(Nc4c(Cl)ccc5c4OCO5)ncnc3c2)CC1 [saracatinib]
Procedure, shortened: as §1

sotrastaurin = compound: CN1CCN(c2nc(C3=C(c4c[nH]c5ccccc45)C(=O)NC3=O)c3ccccc3n2)CC1 [sotrastaurin]
Procedure, shortened: as §1

alvocidib = compound: CN1CC[C@H](c2c(O)cc(O)c3c(=O)cc(-c4ccccc4Cl)oc23)[C@H](O)C1 [alvocidib]
Procedure, shortened: as §1

Tubastatin A = compound: CN1CCc2c(c3ccccc3n2Cc2ccc(C(=O)NO)cc2)C1 [Tubastatin A]
Procedure, shortened: as §1

[6] = compound: CNC(=O)C1=CC=CC=C1NC2=NC(=NC=C2Cl)NC3=C(C=C(C=C3)N4CCOCC4)OC
Procedure, shortened: as §1

defactinib = compound: CNC(=O)c1ccc(Nc2ncc(C(F)(F)F)c(NCc3nccnc3N(C)S(C)(=O)=O)n2)cc1 [defactinib]
Procedure, shortened: as §1

[7] = compound: CNc1nc(-c2ccc3c(N)n[nH]c3c2)cc(N2C[C@@H](C(=O)NC3CCCCC3)CC[C@H]2C)n1
Procedure, shortened: as §1

encorafenib = compound: COC(=O)N[C@@H](C)CNc1nccc(-c2cn(C(C)C)nc2-c2cc(Cl)cc(NS(C)(=O)=O)c2F)n1 [encorafenib]
Procedure, shortened: as §1

[8] = compound: COC(=O)[C@H](CCSC)NC(=O)C1=C(C=C(C=C1)NC[C@H](CS)N)C2=CC=CC=C2
Procedure, shortened: as §1

alisertib = compound: COc1cc(Nc2ncc3c(n2)-c2ccc(Cl)cc2C(c2c(F)cccc2OC)=NC3)ccc1C(=O)O [alisertib]
Procedure, shortened: as §1

[9] = compound: COc1cc2nc(-c3cc(F)ccc3O)nc(N[C@@H]3CNC[C@H]3C(C)(C)O)c2cc1OC
Procedure, shortened: as §1

gefitinib = compound: COc1cc2ncnc(Nc3ccc(F)c(Cl)c3)c2cc1OCCCN1CCOCC1 [gefitinib]
Procedure, shortened: as §1

Measured: log2 fold change

FKBP14 (UniProt Q9NWM8)
inactive: vemurafenib -0.015 | [1] 0.005 | barasertib -0.073 | [2] 0.006 | volasertib 0.002 | [3] -0.048 | [4] -0.026 | [5] 0.038 | saracatinib -0.001 | sotrastaurin -0.078 | alvocidib 0.031 | Tubastatin A 0.042 | [6] -0.006 | defactinib 0.037 | [7] 0.019 | encorafenib 0.035 | [8] -0.054 | alisertib -0.01 | [9] -0.041 | gefitinib 0.062

FBXO9 (UniProt Q9UK97)
inactive: vemurafenib -0.025 | [1] 0.007 | barasertib 0.116 | [2] 0.135 | volasertib -0.012 | [3] -0.015 | [4] 0.049 | [5] -0.083 | saracatinib -0.013 | sotrastaurin 0.021 | alvocidib 0.099 | Tubastatin A -0.006 | [6] -0.015 | defactinib 0.104 | [7] 0.037 | encorafenib 0.078 | [8] -0.042 | alisertib -0.011 | gefitinib 0.04
active: [9] -0.402

FCHO1 (UniProt O14526)
inactive: vemurafenib 0.023 | [1] 0.033 | barasertib 0.02 | [2] 0.023 | volasertib -0.062 | [3] -0.026 | [4] -0.053 | [5] -0.004 | saracatinib 0.006 | sotrastaurin -0.015 | alvocidib 0.027 | Tubastatin A -0.188 | [6] 0.038 | defactinib 0.039 | [7] 0.038 | encorafenib 0.009 | [8] 0.076 | alisertib 0.009 | [9] -0.021 | gefitinib 0.003

FCHO2 (UniProt Q0JRZ9)
inactive: vemurafenib -0.044 | [1] 0.043 | barasertib -0.01 | [2] 0.067 | volasertib 0.016 | [3] -0.051 | [4] 0.019 | [5] -0.041 | saracatinib 0.018 | sotrastaurin -0.008 | alvocidib -0.002 | Tubastatin A -0.013 | [6] 0.025 | defactinib 0.03 | [7] -0.008 | encorafenib -0.045 | [8] 0.03 | alisertib 0.004 | [9] -0.03 | gefitinib -0.046

FBLL1 (UniProt A6NHQ2)
active: [4] -0.307
inactive: vemurafenib 0.081 | [1] 0.019 | barasertib 0.107 | [2] 0.003 | volasertib -0.041 | [3] -0.014 | [5] 0.046 | saracatinib -0.075 | sotrastaurin 0.056 | alvocidib -0.009 | Tubastatin A -0.049 | [6] -0.036 | defactinib 0.047 | [7] 0.081 | encorafenib 0.042 | [8] 0.056 | alisertib 0.012 | [9] 0.005 | gefitinib 0.035

FAM98C (UniProt Q17RN3)
inactive: vemurafenib 0 | [1] -0.108 | barasertib 0.043 | [2] -0.241 | volasertib -0.187 | [3] -0.162 | [4] 0.112 | [5] 0.018 | saracatinib 0.112 | sotrastaurin 0.115 | alvocidib -0.137 | Tubastatin A -0.031 | [6] 0.259 | defactinib -0.059 | [7] 0.087 | encorafenib -0.022 | [8] 0.107 | alisertib -0.004 | [9] -0.183 | gefitinib 0.085

FAU (UniProt E9PR30)
active: [4] 0.33
inactive: vemurafenib -0.009 | [1] -0.015 | barasertib -0.17 | [2] 0.005 | volasertib -0.002 | [3] 0.036 | [5] -0.076 | saracatinib -0.042 | sotrastaurin -0.012 | alvocidib 0.073 | Tubastatin A 0.02 | [6] -0.087 | defactinib 0.003 | [7] 0.013 | encorafenib -0.04 | [8] 0.013 | alisertib 0.035 | [9] -0.016 | gefitinib -0.044

FDX2 (UniProt Q6P4F2)
inactive: vemurafenib 0.022 | [1] -0.011 | barasertib 0.166 | [2] 0.069 | volasertib 0.038 | [3] -0.047 | [4] -0.264 | [5] -0.003 | saracatinib -0.122 | sotrastaurin -0.027 | alvocidib -0.016 | Tubastatin A 0.093 | [6] -0.001 | defactinib -0.017 | [7] -0.478 | encorafenib -0.33 | [8] -0.313 | alisertib 0.07 | [9] -0.021 | gefitinib -0.041

FNTB (UniProt P49356)
active: [2] 0.285
inactive: vemurafenib 0.055 | [1] -0.009 | barasertib -0.036 | volasertib 0.005 | [3] 0.037 | [4] -0.036 | [5] 0.016 | saracatinib 0.016 | sotrastaurin 0.042 | alvocidib -0.003 | Tubastatin A 0.048 | [6] -0.019 | defactinib 0.026 | [7] -0.056 | encorafenib -0.046 | [8] 0.131 | alisertib -0.034 | [9] -0.007 | gefitinib -0.031

3 successive entries out of the list so far, quoted:
FBLL1 (UniProt A6NHQ2)
active: [4] -0.307
inactive: vemurafenib 0.081 | [1] 0.019 | barasertib 0.107 | [2] 0.003 | volasertib -0.041 | [3] -0.014 | [5] 0.046 | saracatinib -0.075 | sotrastaurin 0.056 | alvocidib -0.009 | Tubastatin A -0.049 | [6] -0.036 | defactinib 0.047 | [7] 0.081 | encorafenib 0.042 | [8] 0.056 | alisertib 0.012 | [9] 0.005 | gefitinib 0.035

FAM98C (UniProt Q17RN3)
inactive: vemurafenib 0 | [1] -0.108 | barasertib 0.043 | [2] -0.241 | volasertib -0.187 | [3] -0.162 | [4] 0.112 | [5] 0.018 | saracatinib 0.112 | sotrastaurin 0.115 | alvocidib -0.137 | Tubastatin A -0.031 | [6] 0.259 | defactinib -0.059 | [7] 0.087 | encorafenib -0.022 | [8] 0.107 | alisertib -0.004 | [9] -0.183 | gefitinib 0.085

FAU (UniProt E9PR30)
active: [4] 0.33
inactive: vemurafenib -0.009 | [1] -0.015 | barasertib -0.17 | [2] 0.005 | volasertib -0.002 | [3] 0.036 | [5] -0.076 | saracatinib -0.042 | sotrastaurin -0.012 | alvocidib 0.073 | Tubastatin A 0.02 | [6] -0.087 | defactinib 0.003 | [7] 0.013 | encorafenib -0.04 | [8] 0.013 | alisertib 0.035 | [9] -0.016 | gefitinib -0.044

Following part:

FOPNL (UniProt Q96NB1)
inactive: vemurafenib 0.034 | [1] 0.113 | barasertib 0.12 | [2] 0.117 | volasertib -0.02 | [3] -0.065 | [4] -0.082 | [5] 0.024 | saracatinib 0.081 | sotrastaurin 0.01 | alvocidib -0.012 | Tubastatin A 0.073 | defactinib -0.081 | [7] -0.068 | encorafenib 0.057 | [8] 0.013 | alisertib -0.011 | [9] -0.046 | gefitinib -0.112

FLNA (UniProt P21333)
inactive: vemurafenib 0 | [1] 0.002 | barasertib -0.012 | [2] 0.015 | volasertib 0.009 | [3] -0.021 | [4] -0.076 | [5] 0.056 | saracatinib -0.007 | sotrastaurin -0.023 | alvocidib -0.016 | Tubastatin A 0.007 | [6] -0.001 | defactinib -0.005 | [7] 0.007 | encorafenib -0.034 | [8] -0.049 | alisertib 0.004 | [9] 0.009 | gefitinib -0.023

FN1 (UniProt P02751)
inactive: vemurafenib -0.009 | [1] -0.009 | barasertib 0.024 | [2] 0.057 | volasertib 0.02 | [3] -0.011 | [4] -0.106 | [5] 0.098 | saracatinib 0.013 | sotrastaurin 0.019 | alvocidib -0.08 | Tubastatin A 0.06 | [6] 0.012 | defactinib 0.03 | [7] 0.019 | encorafenib 0.023 | [8] 0.006 | alisertib -0.053 | [9] 0.001 | gefitinib 0.067

FEN1 (UniProt P39748)
inactive: vemurafenib 0.035 | [1] 0.033 | barasertib -0.029 | [2] -0.034 | volasertib -0.021 | [3] -0.02 | [4] -0.024 | [5] -0.036 | saracatinib 0.048 | sotrastaurin 0.02 | alvocidib 0.023 | Tubastatin A -0.026 | [6] 0.004 | defactinib 0.044 | [7] 0.049 | encorafenib 0.025 | [8] 0.038 | alisertib 0.006 | [9] -0.012 | gefitinib -0.057

FBL (UniProt P22087)
inactive: vemurafenib 0.004 | [1] 0.004 | barasertib 0.009 | [2] 0.035 | volasertib -0.044 | [3] -0.015 | [4] 0.009 | [5] -0.042 | saracatinib 0.025 | sotrastaurin -0.007 | alvocidib -0.017 | Tubastatin A 0.002 | [6] -0.022 | defactinib -0.075 | [7] 0.022 | encorafenib 0.045 | [8] 0.055 | alisertib 0.02 | [9] 0.007 | gefitinib -0.008

FCHSD1 (UniProt Q86WN1)
inactive: vemurafenib 0.068 | [1] -0.001 | barasertib 0.099 | [2] -0.107 | volasertib 0.035 | [3] -0.077 | [4] -0.073 | [5] 0.08 | saracatinib -0.043 | sotrastaurin -0.047 | alvocidib -0.097 | Tubastatin A -0.083 | [6] -0.044 | defactinib -0.029 | [7] -0.038 | encorafenib 0.009 | [8] 0.004 | alisertib -0.054 | [9] -0.041 | gefitinib -0.05

FER (UniProt P16591)
inactive: vemurafenib -0.01 | [1] -0.224 | barasertib 0.191 | [2] 0.069 | volasertib -0.004 | [3] -0.042 | [4] -0.173 | [5] 0.189 | saracatinib -0.006 | sotrastaurin 0.327 | alvocidib -0.044 | Tubastatin A 0.048 | [6] 0.511 | defactinib 0.083 | [7] -0.108 | encorafenib -0.072 | [8] 0.03 | alisertib -0.399 | [9] -0.108 | gefitinib 0.95

Reference: the supplement of paper PMC10849652
